Small-molecule microarray binding calls

Source: the ROBIN nucleic acid binder screens (doi:10.1002/anie.202211358).

Targets (5′ to 3′):
SAM-II: SAM-II riboswitch RNA pseudoknot, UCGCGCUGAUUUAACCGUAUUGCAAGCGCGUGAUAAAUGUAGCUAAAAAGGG. About 21,000 compounds screened, about 200 hits.

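The test is a small-molecule microarray: each compound is printed twice on a reactive slide, and binding shows as fluorescence of the labelled oligonucleotide after washing. The data file lists only calls. An earlier report of the laboratory on the PreQ1, TPP and SAM-II riboswitches (doi:10.1038/s41467-019-09493-3) used 1 µM RNA for 2 h and required a mean Z-score above 3 (spot signal-to-noise against the whole library), a score well above that on a control array, and duplicate spots agreeing (coefficient of variation under 100); it then also set aside compounds that hit other targets, which this list keeps. The cut-offs behind this list may differ. A missing hit is not proof of no binding, and a hit is not a measured affinity.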 A compound is marked hit if it was called a hit and no hit if it was screened but was not. This is an unselected part of the compounds tested.

structure | SAM-II
O=C(NC(CO)CO)c1cnc(Nc2ccccc2)nc1 | no hit
COc1cc2c(cc1OC)C(/C=C/c1ccco1)=NCC2.O=S(=O)(O)O | no hit
CSc1ccc(CN(CCO)C(=O)c2cnc(C3CC3)nc2O)cc1 | no hit
COCC(C)(C)C(=O)N1CCNC(c2ccccc2)C1 (centres undefined) | no hit
CCOc1ncccc1Cn1cc(-c2ccc(CO)o2)nn1 | no hit
CC(=O)SC[C@@H](C)C(=O)N1CCC[C@H]1C(=O)N[C@@H](Cc1ccccc1)C(=O)O | no hit
CCOc1ccc(CNc2nc[nH]n2)cc1OCC | no hit
CSCC[C@H](N)C(=O)N(C)Cc1nc(-c2cccnc2)no1 | no hit
O=c1[nH]c2cc3c(cc2cc1CN1C[C@H](O)[C@@H](N2CCCC2)C1)CCC3 | no hit
COc1ccc(CCNCc2ccc(C)s2)cc1 | no hit
C=CCn1c(N)cc(=O)nc1SCC(=O)Nc1cc(C)ccn1 | no hit
Cc1cc(C)n2c(SCCO)nnc2n1 | no hit
Cc1ccccc1-c1nc(Cn2cc(CO)c(-c3cccs3)n2)c(C)o1 | no hit
CN(CCC(=O)N1CCC2(CCCN(CCO)C2=O)C1)S(C)(=O)=O (centres undefined) | no hit
CCCc1nc(C(=O)N2CCNCC2C(=O)N2CCN(C)CC2)cs1 (centres undefined) | no hit
COc1ccc(-c2cc(CNCC3(O)CCNC3)no2)cc1 (centres undefined) | no hit
CC(c1nc(-c2ccncc2)nn1CCO)N(C)C1CCCCC1 (centres undefined) | no hit
c1cncc(OCCCNC2CCOC3(CCOCC3)C2)c1 (centres undefined) | no hit
OC[C@H]1CN(Cc2cnc(N3CCCCC3)nc2)C[C@H]1CN1CCOCC1 | no hit
N#Cc1cccc(N2CCN(Cc3cc4ccccc4[nH]3)CC(O)C2)n1 (centres undefined) | no hit
O=C(c1ccccn1)N1C[C@@H]2CC[C@H](C1)N(Cc1ccc(C#CCO)s1)C2 | no hit
CC(=O)C1=C(O)C(=O)N(CC(C)O)C1c1cccnc1 (centres undefined) | no hit
c1csc(CN2CCC(n3ccnc3-c3cc4n(n3)CCCNC4)CC2)c1 | no hit
CCOC(=O)c1cnc2ccccc2c1NCC(C)O (centres undefined) | no hit
CCn1c2ccccc2c2cc(CN3CCC(N4CCN(CCO)CC4)CC3)ccc21 | no hit
O=C(NCc1nnnn1-c1ccccc1)c1cn2c(n1)CNCC2 | no hit
CC1(C)CCC2=C(O1)c1ccccc1C(=O)C2=O | no hit
Cc1cc(S(=O)(=O)NCC(=O)N[C@@H]2CC[C@@H](N)C2)ccc1F | no hit
Nc1ccc2c(c1)nnn2-c1ccccc1 | no hit
CCNC(=O)[C@@H]1C[C@H](N)CN1S(=O)(=O)N1CCN(CC)CC1 | no hit
CCNC(=O)CCCC=CC[C@@H]1[C@H](C=CC(O)CCc2ccccc2)[C@@H](O)C[C@@H]1O (some centres undefined) | no hit
C=CCN(C(=O)c1ccccc1NC)C(C)C | no hit
COC(=O)C1=C(N)OC(c2ccccc2)=C(C(C)=O)C12C(=O)Nc1ccc(Br)cc12 (centres undefined) | no hit
O=C(C1CCN(C2CCCC2)CC1)N1CCc2c([nH]n(CCO)c2=O)C1 | no hit
O=C1C(Cl)=C(NCCN2CCOCC2)C(=O)c2ncccc21 | no hit
Cc1nc(N)cc(N2CCC3(CC2)OCCCC3O)n1 (centres undefined) | no hit
NNc1nncc2ccccc12 | no hit
O=C(O)C1C2OC3C(OC(=O)C31)C2Br (centres undefined) | no hit
CCOc1ccccc1NC(=O)c1sc2nc3c(cc2c1N)CN(C)CC3 | no hit
CCc1nc(NCCC(C)C)c(C#N)c2c1COC(C)(C)C2 | no hit
O=C(Nc1ccc(F)c(C(F)(F)F)c1)Nc1nnc(-c2ccncc2)s1 | no hit
CN(CC1(CO)CC1)C(=O)CC1C(=O)NCCN1C1Cc2ccccc2C1 (centres undefined) | no hit
CC1CC=C(O)C12OCC(C)(C)CO2 (centres undefined) | no hit
COc1cc(CC2CC(CN)=NO2)c(OC)c2c1OCO2 (centres undefined) | no hit
COC(=O)[C@]1(C(C)C)N[C@H](c2ccnc(C(C)C)n2)[C@@H]2C(=O)N(C)C(=O)[C@@H]21 | no hit
Nc1cc(Oc2ccc3ccccc3c2)c(Cl)cc1[N+](=O)[O-] | no hit
CCOC(=O)C1CCN(c2c(Nc3cc(C)cc(C)c3)c(=O)c2=O)CC1 | no hit
CC(C)C(=O)Oc1ccc(CO)cc1[C@H](CCN(C(C)C)C(C)C)c1ccccc1 | no hit
N#Cc1cccc(C(=O)N[C@H]2CN[C@H](C(=O)NCC3(O)CCCCC3)C2)c1 | no hit
CCOC(=O)c1c(N)n(-c2ccc(C)c(C)c2)c2nc3ccccc3nc12 | no hit
Cc1cccc(-c2nc(N)nc3c2CN(C(=O)c2cc(C)n[nH]2)C3C)c1 (centres undefined) | no hit
CN(Cc1c[nH]nc1-c1cccc(F)c1)CC1(CO)CC1 | no hit
CC1CC(O)C2C3(C)CCCC2(COC3=O)C12CCC1(CCOC1=O)O2 (centres undefined) | no hit
Cc1cc(C(F)(F)F)nc(CCNC2CCC3(CCNCC3)CC2)n1 | no hit
Cc1ccc([C@@H]2O[C@H](CO)[C@@H](O)[C@H](O)[C@@H]2O)cc1Cc1ccc(-c2ccc(F)cc2)s1 | no hit
COc1ccc(NC2CC(=O)N(c3ccc(Br)cc3)C2=O)cc1 (centres undefined) | no hit
COc1ccccc1-c1nnc(SCC#CCO)o1 | no hit
Nc1nonc1OCc1ccc2c(c1)OCO2 | no hit
O=C1CCc2ccc(OCCCCN3CCN(c4cccc(Cl)c4Cl)CC3)cc2N1 | no hit
CCSC[C@H](N)C(=O)NCc1c(C)ncc2c1CCNC2 | no hit
O=C(Nc1cccc([N+](=O)[O-])c1)c1cc2ccccc2cc1O | no hit
C=CCNc1nc(C2(C)CC3(CC(C)OC3=O)C(=O)O2)cs1 (centres undefined) | no hit
CC1(C)CC(=O)C=C(Nc2ccc(F)cc2)C1 | no hit

For reference, 4 entries once more:

structure	SAM-II
CC1(C)CC(=O)C=C(Nc2ccc(F)cc2)C1	no hit
O=c1[nH]c2cc3c(cc2cc1CN1C[C@H](O)[C@@H](N2CCCC2)C1)CCC3	no hit
O=C(Nc1ccc(F)c(C(F)(F)F)c1)Nc1nnc(-c2ccncc2)s1	no hit
CCn1c2ccccc2c2cc(CN3CCC(N4CCN(CCO)CC4)CC3)ccc21	no hit